Reference: patent US5444056A, “Aminoalkoxyphenyl derivatives, process for their preparation and compositions containing them” (Sanofi, priority 1989, dated 1995)
Where a name gives a salt, the structure may show the parent alone. The name of at least one read-out is uncertain.

Tested on: acceleration of the heart rate induced by isoprenaline (anti-β effect)
Test: Anti-β effect: reduction of isoprenaline-induced acceleration of the heart rate in anesthetized atropinized dog
Assay type: in vivo
Protocol: The aim of this test is to determine the capacity of the compounds of the invention to reduce the increase in blood pressure induced by epinephrine (anti-αeffect) and the acceleration of the heart rate induced by isoprenaline (anti-βeffect) in the dog previously anesthetized with pentobarbital and atropinized.
First, are determined for each dog the dose of epinephrine (between 3 and 10 μg/kg) which causes a reproducible increase in arterial blood pressure of about 133.10^2 Pa and the dose of isoprenaline (1 to 2 μg/kg) which causes a reproducible increase in the heart rate of about 70 beats/minute. The doses of epinephrine and isoprenaline thus determined are injected alternatively every ten minutes and after the two consecutive reference responses have been obtained, a quantity of the test compound is administered by the intravenous route.
The percentage reduction of the acceleration of the heart rate caused by the test compound compared with the reference tachycardia previously measured (about 70 beats) is recorded.
In both cases, the results of the reduction in arterial pressure and heart rate are expressed as follows: […]

For `CCCCN(CCCC)CCCOc1ccc(S(=O)(=O)c2c(C(C)C)cn3ccccc23)cc1` [B, reference compound], the Anti-β effect (intravenous, 0,5 mg/kg) was “++ (for a reduction ≥50%)”.
In the case of `CCCCc1oc2ccc([N+](=O)[O-])cc2c1S(=O)(=O)c1ccc(OCCCN(C)CCc2ccc(OC)c(OC)c2)cc1` [Ex. 1, 2-n-butyl 3-{4-[3-(N-methyl N-3,4-dimethoxy-β-phenethylamino)propoxy]benzenesulfonyl} 5-nitro benzofuran hydrochloride], the Anti-β effect (intravenous, 3,23 mg/kg) is reported as “++ (for a reduction ≥50%)”.
In the case of `CCCCc1oc2ccc(N)cc2c1S(=O)(=O)c1ccc(OCCCN(C)CCc2ccc(OC)c(OC)c2)cc1` [Ex. 3, 5-amino 3-{4-[3-(N-methyl N-3,4-dimethoxy-β-phenethylamino)propoxy]benzenesulfonyl} 2-n-butyl benzofuran dihydrochloride], the Anti-β effect (intravenous, 1,31 mg/kg) is reported as “++ (for a reduction ≥50%)”.
With `COc1ccc(CCN(C)CCCOc2ccc(S(=O)(=O)c3c(C(C)C)n(CCN(C)C)c4ccccc34)cc2)cc1OC` [Ex. 11, 3-{4-[3-(N-methyl N-3,4-dimethoxy-β-phenethylamino)propoxy]benzenesulfonyl} 1-dimethylaminoethyl 2-isopropyl indole dioxalate] the Anti-β effect (intravenous, 1,6 mg/kg) was “+ (for a reduction <50%)”.
For `COc1ccc(CCN(C)CCCOc2ccc(S(=O)(=O)c3c(C(C)C)n(C)c4ccc(Cl)cc34)cc2)cc1OC` [Ex. 13, 3-{4-[3-(N-methyl N-3,4-dimethoxy-β-phenethylamino)propoxy]benzenesulfonyl} 5-chloro 2-isopropyl 1-methylindole], the Anti-β effect (intravenous, 0,6 mg/kg) was “++ (for a reduction ≥50%)”.
In the case of `COc1ccc(CCNCCCOc2ccc(S(=O)(=O)c3c(C(C)C)c(C)n4ccccc34)cc2)cc1OC` [Ex. 14, 2-isopropyl 3-methyl 1-{4-[3-(N-3,4-dimethoxy-β-phenethylamino)propoxy]benzenesulfonyl}indolizine hydrogen oxalate], the Anti-β effect (intravenous, 0,12 mg/kg) is reported as “+ (for a reduction <50%)”.
With `CCCCN(CCCC)CCCOc1ccc(S(=O)(=O)c2c(C(C)C)n(C)c3ccc(Cl)cc23)cc1.O=C(O)C(=O)O` [Ex. 44, 1-methyl 2-isopropyl 3-{4-[3-(di-n-butylamino)propoxy]benzenesulfonyl} 5-chloro indole hydrogen oxalate] the Anti-β effect (intravenous, 1,2 mg/kg) was “++ (for a reduction ≥50%)”.
In the case of `CC(C)c1c(S(=O)(=O)c2ccc(OCCCN(C)C3CCCc4ccccc43)cc2)c2cc(Cl)ccc2n1C.O=C(O)C(=O)O` (stereo not shown) [Ex. 47, 1-methyl 2-isopropyl 3-{4-[3-(N-methyl N-1,2,3,4-tetrahydronaphth-1-ylamino)propoxy]benzenesulfonyl} 5-chloro indole hydrogen oxalate], the Anti-β effect (intravenous, 6,6 mg/kg) is reported as “++ (for a reduction ≥50%)”.
`CCCCN(CCCC)CCCOc1ccc(S(=O)(=O)c2c(C)nn3cccc(C)c23)cc1.O=C(O)C(=O)O` [Ex. 49, 3-{4-[3-(di-n-butylamino)propoxy]benzenesulfonyl} 2,4-dimethyl pyrazolo[1,5-a]pyridine hydrogen oxalate] was tested, and the Anti-β effect (intravenous, 0,28 mg/kg) was “+ (for a reduction <50%)”.
In the case of `COc1ccc(CCN(C)CCCOc2ccc([S+]([O-])c3c(C(C)C)c4cc(Cl)ccc4n3C)cc2)cc1OC` (stereo not drawn) [Ex. 56, (5-chloro 3-isopropyl 1-methylindo-2yl)4-[3-(N-methyl N-3,4-dimethoxy-β-phenethylamino)propoxy]phenyl sulfoxide hydrogen oxalate], the Anti-β effect (intravenous, 0,67 mg/kg) is reported as “++ (for a reduction ≥50%)”.
For `CCCCN(CCCC)CCCOc1ccc(S(=O)(=O)c2c(C(C)C)c3cc(OC)ccc3n2C)cc1.O=C(O)C(=O)O` [Ex. 64, 2-{4-[3-(di-n-butylamino)propoxy]benzenesulfonyl} 3-isopropyl 5-methoxy 1-methyl indole hydrogen oxalate], the Anti-β effect (intravenous, 0,5 mg/kg) was “++ (for a reduction ≥50%)”.
In the case of `CCCCN(CCCC)CCCOc1ccc(S(=O)(=O)c2c(C(C)C)cn3cccc(C)c23)cc1` [Ex. 75, 1-{4-[3-(di-n-butylamino)propoxy]benzenesulfonyl} 2-isopropyl 8-methyl indolizine], the Anti-β effect (intravenous, 0,02 mg/kg) is reported as “++ (for a reduction ≥50%)”.
In the case of `COc1ccc(CCN(C)CCCOc2ccc(S(=O)(=O)c3c(C(C)C)cn4c(C)cccc34)cc2)cc1OC` [Ex. 79, 2-Isopropyl 5-methyl 1-{4-[3-(N-methyl N-3,4-dimethoxy-β-phenethylamino)propoxy]benzenesulfonyl}indolizine], the Anti-β effect (intravenous, 0,07 mg/kg) is reported as “++ (for a reduction ≥50%)”.
